Experimental data from paper PMC4916433.
Results are given in words; binding and its absence hold for the method and conditions named. Binding seen in cells or lysates may run through a third protein. Some results given as binding are weak or reduced against the parent protein; the word gives no strength.

Chains of the proteins cited; added tags and fusions are not shown. Residues count along the entry.
UniProt Q6UXX9, residues 22-243: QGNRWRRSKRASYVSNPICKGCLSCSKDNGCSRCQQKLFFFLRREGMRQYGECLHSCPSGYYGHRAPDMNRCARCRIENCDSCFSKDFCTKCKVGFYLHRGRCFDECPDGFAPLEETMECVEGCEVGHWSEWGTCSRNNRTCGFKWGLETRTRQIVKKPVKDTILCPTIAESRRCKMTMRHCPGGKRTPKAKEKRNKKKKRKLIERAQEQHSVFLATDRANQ
UniProt O75096, residues 21-1905: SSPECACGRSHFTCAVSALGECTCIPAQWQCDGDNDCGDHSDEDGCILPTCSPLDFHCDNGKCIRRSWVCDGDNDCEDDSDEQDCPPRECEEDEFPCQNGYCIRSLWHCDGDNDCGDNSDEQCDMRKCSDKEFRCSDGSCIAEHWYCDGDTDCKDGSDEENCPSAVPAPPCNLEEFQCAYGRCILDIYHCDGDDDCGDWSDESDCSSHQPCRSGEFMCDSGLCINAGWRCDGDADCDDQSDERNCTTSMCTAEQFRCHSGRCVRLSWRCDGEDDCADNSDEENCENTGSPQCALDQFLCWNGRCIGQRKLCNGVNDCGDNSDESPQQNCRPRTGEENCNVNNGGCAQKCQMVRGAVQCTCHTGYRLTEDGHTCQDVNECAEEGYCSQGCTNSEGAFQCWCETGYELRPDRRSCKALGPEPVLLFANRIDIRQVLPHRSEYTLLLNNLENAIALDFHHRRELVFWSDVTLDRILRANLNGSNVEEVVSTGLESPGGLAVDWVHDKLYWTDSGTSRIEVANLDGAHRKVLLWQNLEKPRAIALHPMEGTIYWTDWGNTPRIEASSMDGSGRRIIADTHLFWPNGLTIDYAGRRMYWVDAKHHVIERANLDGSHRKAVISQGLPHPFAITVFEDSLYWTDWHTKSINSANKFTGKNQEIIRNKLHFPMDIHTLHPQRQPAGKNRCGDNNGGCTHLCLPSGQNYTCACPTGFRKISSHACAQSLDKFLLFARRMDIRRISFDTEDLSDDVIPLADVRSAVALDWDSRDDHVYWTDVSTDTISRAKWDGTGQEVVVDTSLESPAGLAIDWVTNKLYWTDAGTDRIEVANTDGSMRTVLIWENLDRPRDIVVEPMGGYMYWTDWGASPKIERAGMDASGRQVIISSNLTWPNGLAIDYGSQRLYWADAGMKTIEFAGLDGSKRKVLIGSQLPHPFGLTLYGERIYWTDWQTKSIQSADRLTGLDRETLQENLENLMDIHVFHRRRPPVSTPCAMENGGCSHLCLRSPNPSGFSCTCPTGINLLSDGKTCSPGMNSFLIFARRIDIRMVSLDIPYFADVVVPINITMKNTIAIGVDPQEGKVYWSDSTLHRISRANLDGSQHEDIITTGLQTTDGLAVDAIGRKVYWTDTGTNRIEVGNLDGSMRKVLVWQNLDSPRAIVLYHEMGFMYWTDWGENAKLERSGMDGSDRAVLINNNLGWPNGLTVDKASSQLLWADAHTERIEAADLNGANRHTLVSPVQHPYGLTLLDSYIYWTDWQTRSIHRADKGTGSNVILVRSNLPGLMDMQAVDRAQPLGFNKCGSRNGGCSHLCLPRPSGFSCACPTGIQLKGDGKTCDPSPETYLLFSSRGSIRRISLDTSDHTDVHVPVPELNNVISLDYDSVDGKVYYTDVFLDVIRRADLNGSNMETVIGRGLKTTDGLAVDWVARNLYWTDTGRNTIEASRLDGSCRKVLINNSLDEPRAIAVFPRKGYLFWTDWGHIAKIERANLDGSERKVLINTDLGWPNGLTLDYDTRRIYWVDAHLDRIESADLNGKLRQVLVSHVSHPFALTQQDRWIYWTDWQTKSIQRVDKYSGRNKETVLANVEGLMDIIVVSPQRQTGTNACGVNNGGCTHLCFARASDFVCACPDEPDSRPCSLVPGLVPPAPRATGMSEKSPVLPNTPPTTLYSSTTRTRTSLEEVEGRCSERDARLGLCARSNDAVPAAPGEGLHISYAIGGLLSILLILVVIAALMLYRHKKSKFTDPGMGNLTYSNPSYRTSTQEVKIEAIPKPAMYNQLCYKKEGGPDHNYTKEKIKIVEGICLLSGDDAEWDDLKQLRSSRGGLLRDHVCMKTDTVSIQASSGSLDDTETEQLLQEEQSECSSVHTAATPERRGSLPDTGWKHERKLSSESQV

What was measured:
[1] = target: Rspo2-myc alkaline phosphatase (AP) (UniProt Q6UXX9); test: co-IP; HEK293 cells transfected with human LGR5 and Rspo2-mycAP or MuSKect-mycAP, no LRP4 co-expressed, 48 h; lysate (50 mM HEPES pH 7.0, 150 mM NaCl, 1% Triton X-100) immunoprecipitated with anti-myc antibody on protein G Sepharose; Western blot for Lgr5 (Fig. 3B)
[2] = target: LRP4-Flag (human) (UniProt O75096); test: co-IP; HEK293 cells transfected with a combination of LRP4-Flag, human full-length MuSK and human LGR5, 48 h; lysate immunoprecipitated with anti-Flag antibody on protein G Sepharose; Western blot (Fig. 3C)

binding [1]: binds | binding [2]: binds
B1: Leucine-rich repeat-containing G-protein coupled receptor 5 (pcDNA3.1-human LGR5) (receptor, UniProt O75473 22-907)
chain: GSSPRSGVLLRGCPTHCHCEPDGRMLLRVDCSDLGLSELPSNLSVFTSYLDLSMNNISQLLPNPLPSLRFLEELRLAGNALTYIPKGAFTGLYSLKVLMLQNNQLRHVPTEALQNLRSLQSLRLDANHISYVPPSCFSGLHSLRHLWLDDNALTEIPVQAFRSLSALQAMTLALNKIHHIPDYAFGNLSSLVVLHLHNNRIHSLGKKCFDGLHSLETLDLNYNNLDEFPTAIRTLSNLKELGFHSNNIRSIPEKAFVGNPSLITIHFYDNPIQFVGRSAFQHLPELRTLTLNGASQITEFPDLTGTANLESLTLTGAQISSLPQTVCNQLPNLQVLDLSYNLLEDLPSFSVCQKLQKIDLRHNEIYEIKVDTFQQLLSLRSLNLAWNKIAIIHPNAFSTLPSLIKLDLSSNLLSSFPITGLHGLTHLKLTGNHALQSLISSENFPELKVIEMPYAYQCCAFGVCENAYKISNQWNKGDNSSMDDLHKKDAGMFQAQDERDLEDFLLDFEEDLKALHSVQCSPSPGPFKPCEHLLDGWLIRIGVWTIAVLALTCNALVTSTVFRSPLYISPIKLLIGVIAAVNMLTGVSSAVLAGVDAFTFGSFARHGAWWENGVGCHVIGFLSIFASESSVFLLTLAALERGFSVKYSAKFETKAPFSSLKVIILLCALLALTMAAVPLLGGSKYGASPLCLPLPFGEPSTMGYMVALILLNSLCFLMMTIAYTKLYCNLDKGDLENIWDCSMVKHIALLLFTNCILNCPVAFLSFSSLINLTFISPEVIKFILLVVVPLPACLNPLLYILFNPHFKEDLVSLRKQTYVWTRSKHPSLMSINSDDVEKQSCDSTQALVTFTSSSITYDLPPSSVPSPAYPVTESCHLSSVAFVPCL
